Among the data in article PMC10883266, “TTLL12 is required for primary ciliary axoneme formation in polarized epithelial cells” (EMBO Reports, 2023) are binding values, retold here.

By UniProt entry, the sequences of proteins in these tests, tags left out. Where a name states a change or a piece, a line headed by the entry shows the natural chain unless it says otherwise.
UniProt Q14166: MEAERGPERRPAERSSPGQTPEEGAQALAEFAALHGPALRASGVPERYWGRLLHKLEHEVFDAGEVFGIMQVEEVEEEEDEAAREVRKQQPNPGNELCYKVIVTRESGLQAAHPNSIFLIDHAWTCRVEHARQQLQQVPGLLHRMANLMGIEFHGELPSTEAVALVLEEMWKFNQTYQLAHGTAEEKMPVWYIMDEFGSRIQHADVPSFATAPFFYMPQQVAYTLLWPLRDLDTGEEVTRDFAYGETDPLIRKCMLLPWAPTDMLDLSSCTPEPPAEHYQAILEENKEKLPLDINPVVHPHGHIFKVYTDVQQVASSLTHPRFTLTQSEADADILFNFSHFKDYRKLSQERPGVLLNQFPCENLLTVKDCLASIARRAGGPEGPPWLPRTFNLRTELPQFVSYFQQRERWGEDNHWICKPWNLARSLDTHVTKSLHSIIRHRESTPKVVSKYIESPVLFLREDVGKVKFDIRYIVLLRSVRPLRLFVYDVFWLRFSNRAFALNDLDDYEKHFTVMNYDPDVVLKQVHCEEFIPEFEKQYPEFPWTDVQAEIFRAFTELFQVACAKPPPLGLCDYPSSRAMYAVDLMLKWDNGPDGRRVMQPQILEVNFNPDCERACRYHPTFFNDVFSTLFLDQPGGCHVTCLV
UniProt A0A8I3Q624: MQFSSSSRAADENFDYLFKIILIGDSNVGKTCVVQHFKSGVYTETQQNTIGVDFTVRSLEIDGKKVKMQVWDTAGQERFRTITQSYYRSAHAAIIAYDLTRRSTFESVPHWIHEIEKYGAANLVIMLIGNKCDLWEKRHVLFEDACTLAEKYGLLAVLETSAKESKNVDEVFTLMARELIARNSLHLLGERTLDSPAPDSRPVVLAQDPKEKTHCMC

These are yes or no findings as the source states them, for the method shown. Binding seen in cells or lysates may run through a third protein. These calls come from enrichment with a bait or labelling near it, and not all partners need be listed.

This assay concerns the target GFP-TTLL12 (human) (UniProt Q14166). As to the kind of experiment: affinity purification with mass spectrometry; MDCK cells expressing GFP alone or GFP-TTLL12 lysed in 20 mM HEPES pH 7.4, 150 mM NaCl, 1% Triton X-100; GST-tagged GFP nanobody on Affigel resin; hits enriched at least sixfold over GFP alone.

Consider “endogenous Rab19 (MDCK cells) (from UniProt A0A8I3Q624)”, for which the binding result is given as “binds”.
